Reference: PubChem BioAssay AID602196 (INSERM, 2012)

Screen: 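Modifiers of cisplatin sensitivity in A549 cells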
System: human A549 lung cancer cells
Knock-down reagent: siRNA pair against human genes
Duration: 48 h transfection before cisplatin; time from cisplatin to read-out not stated
Treatment: cisplatin at a dose killing half of control-siRNA cells; exact dose and duration not given
Measurement: 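Cisplatin cell death as a shift from the 50% death seen with control siRNA; siRNAs toxic or growth-blocking alone scored 0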
Direction: two-siRNA summed score (-2 to +2): higher = both siRNAs protect from cisplatin killing; -2 means both sensitise; mean protection from cisplatin (shift in death): higher = protection from cisplatin killing
Active means: 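siRNAs harmful alone (LDH or WST-1) get 0; others get +1 for less and -1 for more cisplatin killing; genes are active when the two siRNAs give the same sign, summing to ±2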
Calls: active = both siRNAs shift cisplatin killing the same way; inactive = no consistent shift, or siRNA harmful alone
This is an unselected part of about 23,000 reagents. Of all reagents, 455 (2%) are marked active. 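Active includes both protection and sensitisation; some change values fall well beyond the stated -50 to +50 range.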 Entries without a mark were called inactive. Reagents against one gene are numbered here. Further read-outs or replicates are left out here. Not stated in the record: the amount of reagent.

With knock-down of CELSR2, the screen gave two-siRNA summed score (-2 to +2) = 0; mean protection from cisplatin (shift in death) (%) = 6.1.
Against LNPEP #1, the entry reads two-siRNA summed score (-2 to +2) = 0; mean protection from cisplatin (shift in death) (%) = 5.8.
Knock-down of LNPEP #2 gave: two-siRNA summed score (-2 to +2) = 0; mean protection from cisplatin (shift in death) (%) = 21.5.
After knock-down of SDHD, the screen gave two-siRNA summed score (-2 to +2) = 1; mean protection from cisplatin (shift in death) (%) = 8.6.
HIC1 gave two-siRNA summed score (-2 to +2) = 1; mean protection from cisplatin (shift in death) (%) = 0.3.
FLJ44076 showed two-siRNA summed score (-2 to +2) = 0; mean protection from cisplatin (shift in death) (%) = 20.8.
With knock-down of LINC01904 the results were two-siRNA summed score (-2 to +2) = 0; mean protection from cisplatin (shift in death) (%) = -1.7.
Knock-down of LOC440171 came out at: two-siRNA summed score (-2 to +2) = 1; mean protection from cisplatin (shift in death) (%) = 8.2.
For KCNAB3, the values are two-siRNA summed score (-2 to +2) = 0; mean protection from cisplatin (shift in death) (%) = -1.4.
Depletion of AQP9 resulted in: two-siRNA summed score (-2 to +2) = -1; mean protection from cisplatin (shift in death) (%) = -9.2.
Depletion of KIF13A resulted in: two-siRNA summed score (-2 to +2) = -1; mean protection from cisplatin (shift in death) (%) = -16.8.
Against GABRR3, the values are two-siRNA summed score (-2 to +2) = 0; mean protection from cisplatin (shift in death) (%) = 0.3.
Silencing of H2AC16 came out at: two-siRNA summed score (-2 to +2) = 0; mean protection from cisplatin (shift in death) (%) = 14.
CDYL2 showed two-siRNA summed score (-2 to +2) = 0; mean protection from cisplatin (shift in death) (%) = -6.1.
Against ALOX5AP, the entry reads two-siRNA summed score (-2 to +2) = 0; mean protection from cisplatin (shift in death) (%) = 3.7.
GAL3ST1 showed two-siRNA summed score (-2 to +2) = 0; mean protection from cisplatin (shift in death) (%) = 4.1.
LOC441468 gave two-siRNA summed score (-2 to +2) = 0; mean protection from cisplatin (shift in death) (%) = 5.3.
Depletion of SAP30BP came out at: two-siRNA summed score (-2 to +2) = 0; mean protection from cisplatin (shift in death) (%) = -1.3.
Silencing of ZNF491 gave: two-siRNA summed score (-2 to +2) = 0; mean protection from cisplatin (shift in death) (%) = 0.6.
Depletion of LOC441154 gave: two-siRNA summed score (-2 to +2) = 1; mean protection from cisplatin (shift in death) (%) = 6.7.
With knock-down of HPS5 the results were two-siRNA summed score (-2 to +2) = 0; mean protection from cisplatin (shift in death) (%) = -3.
Knock-down of NHERF1 resulted in: two-siRNA summed score (-2 to +2) = 1; mean protection from cisplatin (shift in death) (%) = 1.8.
With knock-down of PCDH20, the screen gave two-siRNA summed score (-2 to +2) = 1; mean protection from cisplatin (shift in death) (%) = 17.1.
BTC gave two-siRNA summed score (-2 to +2) = -1; mean protection from cisplatin (shift in death) (%) = -8.4.
LOC440526 gave two-siRNA summed score (-2 to +2) = 1; mean protection from cisplatin (shift in death) (%) = 10.8.
After knock-down of UBE2G2, the record shows two-siRNA summed score (-2 to +2) = -1; mean protection from cisplatin (shift in death) (%) = -5.3.
Knock-down of LOC441501 came out at: two-siRNA summed score (-2 to +2) = 0; mean protection from cisplatin (shift in death) (%) = 6.2.
PGM1 gave two-siRNA summed score (-2 to +2) = 0; mean protection from cisplatin (shift in death) (%) = 1.9.
Depletion of TIMM23 resulted in: two-siRNA summed score (-2 to +2) = 0; mean protection from cisplatin (shift in death) (%) = 1.2.
After knock-down of ZNF525 the results were two-siRNA summed score (-2 to +2) = 0; mean protection from cisplatin (shift in death) (%) = -0.7.
FUZ gave two-siRNA summed score (-2 to +2) = 0; mean protection from cisplatin (shift in death) (%) = -12.1.
Knock-down of MUC15 gave: two-siRNA summed score (-2 to +2) = 0; mean protection from cisplatin (shift in death) (%) = 5.4.
Silencing of PSEN1 came out at: two-siRNA summed score (-2 to +2) = 0; mean protection from cisplatin (shift in death) (%) = -3.4.
Silencing of GALNT11 came out at: two-siRNA summed score (-2 to +2) = 0; mean protection from cisplatin (shift in death) (%) = 7.
LOC402326 gave two-siRNA summed score (-2 to +2) = 0; mean protection from cisplatin (shift in death) (%) = 4.7.
After knock-down of TAT the results were two-siRNA summed score (-2 to +2) = 0; mean protection from cisplatin (shift in death) (%) = -0.1.
Against TRIM48, the values are two-siRNA summed score (-2 to +2) = 0; mean protection from cisplatin (shift in death) (%) = 26.
Against KMO the deposit lists two-siRNA summed score (-2 to +2) = -1; mean protection from cisplatin (shift in death) (%) = -12.9.
With knock-down of PCGF1 the results were two-siRNA summed score (-2 to +2) = -1; mean protection from cisplatin (shift in death) (%) = -13.1.
Depletion of LOC442100 gave: two-siRNA summed score (-2 to +2) = -1; mean protection from cisplatin (shift in death) (%) = -7.

Copied from the listing (2 entries):
GALNT11 — two-siRNA summed score (-2 to +2): 0; mean protection from cisplatin (shift in death) (%): 7
LOC402326 — two-siRNA summed score (-2 to +2): 0; mean protection from cisplatin (shift in death) (%): 4.7
